Assay [1] concerns the target srGAP3 construct carrying a mutation in the SH3 domain (UniProt O43295). The assay is described as follows: co-IP; HEK293 cells transiently co-transfected with srGAP3 and Myc-tagged Robo1/2 constructs; lysed in modified RIPA buffer (50 mM Tris/HCl pH 7.4, 1% NP-40, 0.25% Na-deoxycholate, 1 mM EDTA); 400 µg lysate precipitated with rabbit srGAP3 (19.1) antibody and protein A/G sepharose; blot with anti-myc 9E10.

Amino acid sequences for entries named in this document (tags omitted). A change or cut given only in a name is not applied to a line headed by its entry. Residues count along the entry.
UniProt O43295: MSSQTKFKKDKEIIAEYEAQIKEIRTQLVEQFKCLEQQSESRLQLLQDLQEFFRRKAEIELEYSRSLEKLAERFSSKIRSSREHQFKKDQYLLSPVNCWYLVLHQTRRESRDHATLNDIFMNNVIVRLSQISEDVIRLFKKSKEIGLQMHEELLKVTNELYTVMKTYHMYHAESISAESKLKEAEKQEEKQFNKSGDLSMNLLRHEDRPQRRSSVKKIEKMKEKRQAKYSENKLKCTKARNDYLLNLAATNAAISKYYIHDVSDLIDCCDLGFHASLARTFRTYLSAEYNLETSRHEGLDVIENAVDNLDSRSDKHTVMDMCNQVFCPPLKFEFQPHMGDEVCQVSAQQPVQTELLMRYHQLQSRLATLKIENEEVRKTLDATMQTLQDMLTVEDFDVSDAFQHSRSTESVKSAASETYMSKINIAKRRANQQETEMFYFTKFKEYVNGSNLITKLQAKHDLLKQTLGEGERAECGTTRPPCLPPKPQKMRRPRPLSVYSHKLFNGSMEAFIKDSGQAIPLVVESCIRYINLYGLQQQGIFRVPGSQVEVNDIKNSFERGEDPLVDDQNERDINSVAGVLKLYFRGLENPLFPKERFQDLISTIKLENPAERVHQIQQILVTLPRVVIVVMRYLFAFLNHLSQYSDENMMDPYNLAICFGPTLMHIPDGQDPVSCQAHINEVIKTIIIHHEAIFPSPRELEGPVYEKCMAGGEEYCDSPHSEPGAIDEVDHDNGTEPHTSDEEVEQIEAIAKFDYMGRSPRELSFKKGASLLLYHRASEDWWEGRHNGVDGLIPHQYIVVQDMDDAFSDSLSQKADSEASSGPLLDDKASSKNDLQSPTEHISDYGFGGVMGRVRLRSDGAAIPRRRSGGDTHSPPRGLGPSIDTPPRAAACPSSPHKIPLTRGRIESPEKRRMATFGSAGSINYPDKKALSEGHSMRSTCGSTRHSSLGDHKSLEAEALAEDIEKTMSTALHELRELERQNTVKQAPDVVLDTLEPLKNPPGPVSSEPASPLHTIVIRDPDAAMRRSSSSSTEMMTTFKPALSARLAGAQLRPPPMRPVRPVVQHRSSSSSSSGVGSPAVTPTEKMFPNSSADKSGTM
UniProt Q9Y6N7, residues 26-1651: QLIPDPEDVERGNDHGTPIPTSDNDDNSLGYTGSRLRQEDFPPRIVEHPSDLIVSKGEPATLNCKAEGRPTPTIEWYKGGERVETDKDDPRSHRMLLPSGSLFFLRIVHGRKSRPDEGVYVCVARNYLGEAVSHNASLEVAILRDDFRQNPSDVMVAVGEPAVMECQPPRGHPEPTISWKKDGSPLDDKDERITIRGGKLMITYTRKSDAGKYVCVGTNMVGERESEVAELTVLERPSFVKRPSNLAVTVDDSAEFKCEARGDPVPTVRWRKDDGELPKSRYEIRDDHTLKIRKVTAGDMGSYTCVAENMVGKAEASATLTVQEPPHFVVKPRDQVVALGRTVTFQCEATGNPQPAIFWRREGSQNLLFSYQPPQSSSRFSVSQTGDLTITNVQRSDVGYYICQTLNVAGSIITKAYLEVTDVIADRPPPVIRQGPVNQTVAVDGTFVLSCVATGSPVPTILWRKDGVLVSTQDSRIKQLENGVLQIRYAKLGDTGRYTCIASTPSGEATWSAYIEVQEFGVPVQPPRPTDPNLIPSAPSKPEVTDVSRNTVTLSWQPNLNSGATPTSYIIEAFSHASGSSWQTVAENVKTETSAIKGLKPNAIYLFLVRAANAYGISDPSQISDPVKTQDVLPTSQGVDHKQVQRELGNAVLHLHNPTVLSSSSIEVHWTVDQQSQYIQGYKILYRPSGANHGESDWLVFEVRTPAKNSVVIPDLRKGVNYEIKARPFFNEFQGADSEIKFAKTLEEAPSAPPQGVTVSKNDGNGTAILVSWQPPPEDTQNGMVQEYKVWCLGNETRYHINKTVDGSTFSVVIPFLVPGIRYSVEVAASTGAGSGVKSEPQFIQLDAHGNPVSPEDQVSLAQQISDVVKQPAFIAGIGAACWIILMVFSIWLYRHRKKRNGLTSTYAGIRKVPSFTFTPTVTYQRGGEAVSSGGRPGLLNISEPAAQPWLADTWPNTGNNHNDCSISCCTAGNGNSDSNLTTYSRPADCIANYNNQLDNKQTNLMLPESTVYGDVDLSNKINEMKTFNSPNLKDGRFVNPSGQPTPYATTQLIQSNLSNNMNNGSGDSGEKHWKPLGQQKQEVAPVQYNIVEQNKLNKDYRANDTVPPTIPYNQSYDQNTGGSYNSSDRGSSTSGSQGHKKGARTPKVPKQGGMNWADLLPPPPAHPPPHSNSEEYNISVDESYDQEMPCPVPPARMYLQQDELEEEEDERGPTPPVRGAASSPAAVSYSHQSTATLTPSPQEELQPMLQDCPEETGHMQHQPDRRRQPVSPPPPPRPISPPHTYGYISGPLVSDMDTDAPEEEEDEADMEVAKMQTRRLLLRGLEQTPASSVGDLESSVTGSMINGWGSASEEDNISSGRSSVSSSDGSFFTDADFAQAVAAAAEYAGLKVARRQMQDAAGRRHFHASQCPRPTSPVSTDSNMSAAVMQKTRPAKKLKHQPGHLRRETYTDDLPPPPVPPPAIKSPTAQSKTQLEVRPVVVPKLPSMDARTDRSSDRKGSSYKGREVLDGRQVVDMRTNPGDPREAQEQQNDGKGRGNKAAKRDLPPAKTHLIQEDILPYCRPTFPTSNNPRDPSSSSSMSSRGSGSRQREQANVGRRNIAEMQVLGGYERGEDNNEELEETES
UniProt Q9HCK4, residues 22-1378: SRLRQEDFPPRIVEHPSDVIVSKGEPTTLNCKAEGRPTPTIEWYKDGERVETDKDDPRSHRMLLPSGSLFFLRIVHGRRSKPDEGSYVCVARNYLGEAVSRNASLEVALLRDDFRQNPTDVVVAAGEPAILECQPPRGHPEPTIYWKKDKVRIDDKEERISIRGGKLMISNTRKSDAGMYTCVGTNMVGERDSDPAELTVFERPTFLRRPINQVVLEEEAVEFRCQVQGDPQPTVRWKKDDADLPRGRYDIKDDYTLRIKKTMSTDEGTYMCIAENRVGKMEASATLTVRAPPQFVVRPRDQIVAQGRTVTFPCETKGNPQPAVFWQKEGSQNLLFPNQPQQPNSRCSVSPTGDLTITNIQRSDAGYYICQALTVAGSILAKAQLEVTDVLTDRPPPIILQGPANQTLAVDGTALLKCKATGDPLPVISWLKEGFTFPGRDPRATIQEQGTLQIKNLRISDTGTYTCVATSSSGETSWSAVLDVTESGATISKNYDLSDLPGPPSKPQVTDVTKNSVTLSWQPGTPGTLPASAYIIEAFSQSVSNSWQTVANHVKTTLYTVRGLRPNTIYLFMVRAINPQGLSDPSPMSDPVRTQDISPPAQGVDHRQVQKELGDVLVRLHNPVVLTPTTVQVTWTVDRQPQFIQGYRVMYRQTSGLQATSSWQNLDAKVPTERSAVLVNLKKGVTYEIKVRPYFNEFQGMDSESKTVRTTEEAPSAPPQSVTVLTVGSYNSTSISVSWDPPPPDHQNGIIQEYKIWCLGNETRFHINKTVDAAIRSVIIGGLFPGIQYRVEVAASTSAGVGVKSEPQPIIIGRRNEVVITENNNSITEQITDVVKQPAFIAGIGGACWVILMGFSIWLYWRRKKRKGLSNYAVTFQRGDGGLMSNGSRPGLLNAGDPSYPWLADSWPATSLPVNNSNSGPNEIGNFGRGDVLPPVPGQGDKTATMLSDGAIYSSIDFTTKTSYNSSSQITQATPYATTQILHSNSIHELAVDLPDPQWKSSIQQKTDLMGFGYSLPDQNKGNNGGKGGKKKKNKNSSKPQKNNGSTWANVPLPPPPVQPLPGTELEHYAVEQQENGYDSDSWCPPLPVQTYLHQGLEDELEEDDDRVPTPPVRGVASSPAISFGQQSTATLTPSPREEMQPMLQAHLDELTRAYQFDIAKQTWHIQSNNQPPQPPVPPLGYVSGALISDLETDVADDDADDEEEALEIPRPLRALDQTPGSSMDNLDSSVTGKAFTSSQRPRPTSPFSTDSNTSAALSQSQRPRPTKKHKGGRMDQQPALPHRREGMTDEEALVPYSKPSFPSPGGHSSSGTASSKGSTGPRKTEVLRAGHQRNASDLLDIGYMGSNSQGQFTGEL

The target of assay [2] is Slit-Robo GTPase activating protein 3 (srGAP3), full length (UniProt O43295). The assay is described as above.

No constants are given. Whether binding was seen depends on the method and setting. In cells and extracts the contact can be indirect.

With “Myc-tagged Robo1, full length (from UniProt Q9Y6N7 26-1651) (receptor)”, the binding result in assay [1] is “no binding”.
On the same count and under the same terms, next, “Myc-tagged Robo2, full length (from UniProt Q9HCK4 22-1378) (receptor)”: “no binding”.
As to “ΔCC3 Robo1 (truncated Robo1 construct missing the CC3 domain), Myc-tagged (from UniProt Q9Y6N7) (receptor)”, the binding result in assay [2] is recorded as “no binding”.
Still for that read-out and setting: in the case of “ΔCC3 Robo2 (truncated Robo2 construct missing the CC3 domain), Myc-tagged (from UniProt Q9HCK4) (receptor)” it was “no binding”.

The values are drawn from paper PMC3104994.
